Source: publication PMC7337926

By UniProt entry, the sequences of proteins in these tests, tags left out. Where a name states a change or a piece, a line headed by the entry shows the natural chain unless it says otherwise.
UniProt F4JLJ9: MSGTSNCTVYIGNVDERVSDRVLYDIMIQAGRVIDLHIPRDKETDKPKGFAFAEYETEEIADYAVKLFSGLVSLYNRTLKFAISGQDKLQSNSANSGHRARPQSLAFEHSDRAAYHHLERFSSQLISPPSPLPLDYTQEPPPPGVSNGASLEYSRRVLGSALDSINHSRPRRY

T1: FLAG-tagged SERRATE (FLAG-SE) (Arabidopsis thaliana), Q9ZVD0
T1 chain: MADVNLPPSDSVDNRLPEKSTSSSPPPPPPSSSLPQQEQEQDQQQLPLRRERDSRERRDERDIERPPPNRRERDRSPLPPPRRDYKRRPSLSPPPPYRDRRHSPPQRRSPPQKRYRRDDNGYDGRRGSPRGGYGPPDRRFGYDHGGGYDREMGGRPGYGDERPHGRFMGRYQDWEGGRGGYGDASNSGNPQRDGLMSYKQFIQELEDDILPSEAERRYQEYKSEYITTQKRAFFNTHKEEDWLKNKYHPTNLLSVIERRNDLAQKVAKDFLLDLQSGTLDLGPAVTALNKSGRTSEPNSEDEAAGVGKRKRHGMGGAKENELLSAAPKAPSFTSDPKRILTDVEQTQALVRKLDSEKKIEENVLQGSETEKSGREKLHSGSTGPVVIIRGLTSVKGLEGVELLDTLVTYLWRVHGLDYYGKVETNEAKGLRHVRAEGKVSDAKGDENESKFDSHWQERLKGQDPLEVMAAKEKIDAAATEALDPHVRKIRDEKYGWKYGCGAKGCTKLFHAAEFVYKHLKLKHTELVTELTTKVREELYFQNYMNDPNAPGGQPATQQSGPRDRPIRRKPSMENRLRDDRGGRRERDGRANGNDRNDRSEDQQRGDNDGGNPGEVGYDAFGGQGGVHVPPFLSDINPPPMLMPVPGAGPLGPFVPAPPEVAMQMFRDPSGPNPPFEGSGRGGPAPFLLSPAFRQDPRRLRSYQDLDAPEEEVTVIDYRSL


Key:
[1] = target: T1, FLAG-tagged SERRATE (FLAG-SE) …; assay: affinity purification with mass spectrometry; FLAG-SE as bait from flower extracts (50 mM Tris HCl pH 8.0, 50 mM NaCl, 1% Triton X-100), anti-FLAG magnetic microbeads, LC-MS/MS; mock IPs in Col-0; conditions: remark: other sources report otherwise
[2] = target: GFP-tagged ZCCHC8B (transgenic plants) (Arabidopsis thaliana); assay: affinity purification with mass spectrometry; GFP-tagged ZCCHC8A, ZCCHC8B or RBM7 as baits from flower extracts (50 mM Tris HCl pH 8.0, 50 mM NaCl, 1% Triton X-100), anti-GFP magnetic microbeads, LC-MS/MS; control IPs in Col-0
[3] = target: GFP-tagged RBM7 (transgenic plants) (Arabidopsis thaliana) (UniProt F4JLJ9); assay: as above
[4] = target: GFP-tagged ZCCHC8A (transgenic plants) (Arabidopsis thaliana); assay: as above

binding [1]	binding [2]	binding [3]	binding [4]	Binder
no binding	–	–	–	HYPONASTIC LEAVES 1 (HYL1), O04492 1-419 (protein) MTSTDVSSGVSNCYVFKSRLQEYAQKYKLPTPVYEIVKEGPSHKSLFQSTVILDGVRYNSLPGFFNRKAAEQSAAEVALRELAKSSELSQCVSQPVHETGLCKNLLQEYAQKMNYAIPLYQCQKVETLGRVTQFTCTVEIGGIKYTGAATRTKKDAEISAGRTALLAIQSDTKNNLANYNTQLTVLPCEKKTIQAAIPLKETVKTLKARKAQFKKKAQKGKRTVAKNPEDIIIPPQPTDHCQNDQSEKIETTPNLEPSSCMNGLKEAAFGSVETEKIETTPNLEPPSCMNGLKEAAFGSVETEKIETTPNLEPPSCMNGLKEAAFGSVETEKIETTPNLEPSSCMNGLKEAAFGSVETEKIETTPNLEPPSCMNGLKEAAFGSVETEKIETTPNLESSSCMSGLKEAAFGSVETEASHA
–	binds	binds	binds	SERRATE (endogenous) (protein, UniProt Q9ZVD0 1-720) MADVNLPPSDSVDNRLPEKSTSSSPPPPPPSSSLPQQEQEQDQQQLPLRRERDSRERRDERDIERPPPNRRERDRSPLPPPRRDYKRRPSLSPPPPYRDRRHSPPQRRSPPQKRYRRDDNGYDGRRGSPRGGYGPPDRRFGYDHGGGYDREMGGRPGYGDERPHGRFMGRYQDWEGGRGGYGDASNSGNPQRDGLMSYKQFIQELEDDILPSEAERRYQEYKSEYITTQKRAFFNTHKEEDWLKNKYHPTNLLSVIERRNDLAQKVAKDFLLDLQSGTLDLGPAVTALNKSGRTSEPNSEDEAAGVGKRKRHGMGGAKENELLSAAPKAPSFTSDPKRILTDVEQTQALVRKLDSEKKIEENVLQGSETEKSGREKLHSGSTGPVVIIRGLTSVKGLEGVELLDTLVTYLWRVHGLDYYGKVETNEAKGLRHVRAEGKVSDAKGDENESKFDSHWQERLKGQDPLEVMAAKEKIDAAATEALDPHVRKIRDEKYGWKYGCGAKGCTKLFHAAEFVYKHLKLKHTELVTELTTKVREELYFQNYMNDPNAPGGQPATQQSGPRDRPIRRKPSMENRLRDDRGGRRERDGRANGNDRNDRSEDQQRGDNDGGNPGEVGYDAFGGQGGVHVPPFLSDINPPPMLMPVPGAGPLGPFVPAPPEVAMQMFRDPSGPNPPFEGSGRGGPAPFLLSPAFRQDPRRLRSYQDLDAPEEEVTVIDYRSL

These are yes or no findings as the source states them, for the method shown. Binding seen in cells or lysates may run through a third protein. A yes stands for co-enrichment or nearness to the bait. Other partners may have been found. For some of these results: No binding means not detected with the bait. For some of these results: Tags and fused reporters may be left off the sequences shown.
